Laboratory results published in patent publication US8198510.
Construct, isoform or probe ends are uncertain for at least one entry. Results from cells or extracts need not show a direct contact.

Target: AvrBs3 (Xanthomonas campestris pv. vesicatoria) (UniProt P14727)
Assay: binding assay
Settings: ChIP, enriched with Xcv wild-type, not with hrcV mutant; protein in cells

Question: Does “ATTTCTTCTATGTGCCTTGTGTCCAAAAGATGTTTCAGAAGTTCGCGTTGGGAAGTTGTCACCCTACGGAATAGCAGCATTAAGGCACATCAGAGATTTTTTGGGTGTTAAGTTTGTCATGAAACCTGATGCCTCCACAGGAACTGTCAATCTCATGTGTCTTGGCTCTGGTTTTCAGAATTTATCCAGAAAAGTATCATGATAAATTAATGGTGTCTGTGTTTGGTGGCTTAGAGTGACGGCTAGATCAACATCTTTGGGATGCCTTGTGGAGTGAAATCAAGCATACTTTATCATAGGCGAAATTTTTTGTTGTGGTTTGCTGCTTGTAATGAGAGAGTGATATAGGAAGCAAATGTGGAGATCACATTTGCTCATCTCCTTGTTGCGTTGAAACTTTTGGTGTCAAGAGTTCTAATTCACATGTATTTGAAGATTCCTCATATGCTGCTTTTGTTTCTAATTATTTTTTCTAGTAAGAAAACATTTGTTCCTGAGTTTCCAACTAGAAAAAAATATCAAGTAAAATAGAATTCAATCATTTCCCTTACCAACGCTTGGTACTGCCAACCGCAACAAAGAATTAATGCAAAACAACAGTCTATTAATATCAACCTAGACTAAACTCCTTAGTTTTACTTTGAAATGCGAATGATACATGACACATTAGATTGTACTTGCTTTTTACCACAGATACAACGATACATTTGTATATCTTTTCCCTTATAGCAAACTCTAATATATCATAGTCAAGCTAACGAAACTTATGCAAGGGAAATATGAAATTAGTATGCAAGTAAACTCAAAGAACTAATCATTGAACTGAAAGATCAATATATCAAAAAAAAAAAAAAAACAATAAAACCGTTTAACCGATAGATTAACCATTTCTGGTTCAGTTTATGGGTTAAACCACAATTTGCACACCCTGGTTAAACAATGAACACGTTTGCCTGACCAATTTTATTATATAAACCTAACCATCCTCACAACTTCAAGTTATCATCCCCTTTCTCTTTTCTCCTCTTGTTCTTGTCACCCGCTAAATCTATCAAAACACAAGTAGTCCTAGTTGCACATATATTTC (double strand) [Bs3 promoter]” bind?
Answer: binds
